Experimental data as given in the supplement of paper PMC10032668.
The list shows a part of the results. Only hits are listed; about a third recur on repeated control peptides.

Chains of the proteins cited; added tags and fusions are not shown.
ATG3, Q9NT62, UniProt Q9NT62, whole entry: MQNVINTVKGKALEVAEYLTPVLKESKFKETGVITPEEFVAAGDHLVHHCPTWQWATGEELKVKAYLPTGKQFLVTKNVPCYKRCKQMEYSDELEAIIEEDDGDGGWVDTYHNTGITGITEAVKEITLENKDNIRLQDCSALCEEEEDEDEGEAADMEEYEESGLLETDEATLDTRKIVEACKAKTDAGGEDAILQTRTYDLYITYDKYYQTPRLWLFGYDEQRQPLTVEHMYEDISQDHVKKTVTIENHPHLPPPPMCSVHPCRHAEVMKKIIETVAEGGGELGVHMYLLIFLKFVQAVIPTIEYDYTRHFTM
MPG, P29372, UniProt P29372, whole entry: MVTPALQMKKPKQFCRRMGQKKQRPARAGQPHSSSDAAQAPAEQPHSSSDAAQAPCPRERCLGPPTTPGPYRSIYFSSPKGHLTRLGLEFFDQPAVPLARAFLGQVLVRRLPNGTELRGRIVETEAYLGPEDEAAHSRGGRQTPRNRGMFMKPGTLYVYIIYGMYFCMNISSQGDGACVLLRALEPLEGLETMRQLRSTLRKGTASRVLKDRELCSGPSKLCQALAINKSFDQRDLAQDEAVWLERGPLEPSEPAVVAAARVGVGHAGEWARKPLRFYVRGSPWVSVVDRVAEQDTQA
SNX1, Q13596, UniProt Q13596, whole entry: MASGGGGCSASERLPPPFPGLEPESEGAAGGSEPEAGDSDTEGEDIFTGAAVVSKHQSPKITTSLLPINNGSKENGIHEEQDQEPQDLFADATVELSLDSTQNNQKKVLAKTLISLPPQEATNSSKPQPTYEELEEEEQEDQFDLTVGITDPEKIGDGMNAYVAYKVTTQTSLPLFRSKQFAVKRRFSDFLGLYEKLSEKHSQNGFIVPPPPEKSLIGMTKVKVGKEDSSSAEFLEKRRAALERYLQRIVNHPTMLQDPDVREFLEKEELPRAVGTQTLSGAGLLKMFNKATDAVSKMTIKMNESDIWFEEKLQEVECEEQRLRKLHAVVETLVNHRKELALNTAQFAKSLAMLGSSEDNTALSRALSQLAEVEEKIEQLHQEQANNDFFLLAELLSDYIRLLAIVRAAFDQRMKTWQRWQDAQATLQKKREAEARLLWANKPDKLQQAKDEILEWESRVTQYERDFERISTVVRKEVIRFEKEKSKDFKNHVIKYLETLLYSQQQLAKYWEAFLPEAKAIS
CCNT1, O60563, UniProt O60563, whole entry: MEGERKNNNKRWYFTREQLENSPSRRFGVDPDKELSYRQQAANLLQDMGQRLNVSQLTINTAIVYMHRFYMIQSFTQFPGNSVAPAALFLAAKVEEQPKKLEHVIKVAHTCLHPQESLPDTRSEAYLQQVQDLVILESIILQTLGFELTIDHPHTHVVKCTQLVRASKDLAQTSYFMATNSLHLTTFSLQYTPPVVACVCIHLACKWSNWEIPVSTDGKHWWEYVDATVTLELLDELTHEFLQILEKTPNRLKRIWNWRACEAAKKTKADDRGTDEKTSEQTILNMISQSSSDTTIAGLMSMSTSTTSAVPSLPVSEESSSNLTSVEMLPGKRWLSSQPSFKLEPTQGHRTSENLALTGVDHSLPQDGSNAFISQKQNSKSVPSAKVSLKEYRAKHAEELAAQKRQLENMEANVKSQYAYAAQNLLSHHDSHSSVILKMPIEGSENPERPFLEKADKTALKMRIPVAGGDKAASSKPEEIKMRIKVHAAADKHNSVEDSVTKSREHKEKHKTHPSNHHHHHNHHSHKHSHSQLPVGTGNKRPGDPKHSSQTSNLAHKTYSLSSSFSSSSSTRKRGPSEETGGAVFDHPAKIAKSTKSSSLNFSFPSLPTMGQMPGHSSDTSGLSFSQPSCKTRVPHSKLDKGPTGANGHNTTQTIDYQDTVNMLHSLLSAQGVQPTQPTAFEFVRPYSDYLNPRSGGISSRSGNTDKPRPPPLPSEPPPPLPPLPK
EIF1B, O60739, UniProt O60739, whole entry: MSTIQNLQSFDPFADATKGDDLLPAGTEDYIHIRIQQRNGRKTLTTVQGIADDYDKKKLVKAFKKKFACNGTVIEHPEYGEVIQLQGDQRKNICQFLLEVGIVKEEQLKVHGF
MAGOHB, Q96A72, UniProt Q96A72, whole entry: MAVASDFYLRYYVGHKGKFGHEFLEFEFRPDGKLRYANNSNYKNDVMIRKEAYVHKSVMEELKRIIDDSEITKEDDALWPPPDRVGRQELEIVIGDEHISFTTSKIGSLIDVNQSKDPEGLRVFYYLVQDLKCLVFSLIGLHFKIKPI

Experiments:
Assay in all cases: PRISMA enrichment of interactor (LFQ) in peptide spot vs all other peptide spots (log2 fold change); higher = stronger / more specific binding of the interactor to the peptide
[1] = biological target: AHCTF1, Q8WYP5
Experimental: (§1)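 PRISMA: 15-aa overlapping tiles (offset 8 aa) of 60 microproteins, plus SOS1/GLUT1 control peptides, were spot-synthesized on cellulose membranes in triplicate. Membranes were incubated with benzonase-treated HEK293T lysate, and bound proteins were identified by LC-MS/MS with LFQ. Enrichment is the log2 fold change of each protein in one spot versus all other spots. Only interactors passing the significance cutoff are listed.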

[2] = biological target: ATG3, Q9NT62
Experimental: as §1

[3] = biological target: CDC37, Q16543
Experimental: as §1

[4] = biological target: FAM3C, Q92520
Experimental: as §1

[5] = biological target: FOXK1, P85037
Experimental: as §1

[6] = biological target: MPG, P29372
Experimental: as §1

[7] = biological target: PCYT1A, P49585
Experimental: as §1

[8] = biological target: RIOK2, Q9BVS4
Experimental: as §1

[9] = biological target: SNX9, Q9Y5X1
Experimental: as §1

[10] = biological target: SUPT6H, Q7KZ85
Experimental: as §1

[11] = biological target: TBL2, Q9Y4P3
Experimental: as §1

[12] = biological target: TCAF1, Q9Y4C2
Experimental: as §1

[13] = biological target: TEX264, Q9Y6I9
Experimental: as §1

[14] = biological target: UTP14A, Q9BVJ6
Experimental: as §1

[15] = biological target: AGK, Q53H12
Experimental: as §1

[16] = biological target: GPC1, P35052
Experimental: as §1

[17] = biological target: ITSN2, Q9NZM3
Experimental: as §1

[18] = biological target: NDC1, Q9BTX1
Experimental: as §1

[19] = biological target: NOP53, Q9NZM5
Experimental: as §1

[20] = biological target: NOP56, O00567
Experimental: as §1

[21] = biological target: SNX1, Q13596
Experimental: as §1

[22] = biological target: TNIK, Q9UKE5
Experimental: as §1

[23] = biological target: CCNT1, O60563
Experimental: as §1

[24] = biological target: DDX52, Q9Y2R4
Experimental: as §1

[25] = biological target: EIF1B, O60739
Experimental: as §1

[26] = biological target: GPAA1, O43292
Experimental: as §1

[27] = biological target: GTF3C5, Q9Y5Q8
Experimental: as §1

[28] = biological target: HOMER3, Q9NSC5
Experimental: as §1

[29] = biological target: MAGOHB, Q96A72
Experimental: as §1

[30] = biological target: PLAA, Q9Y263
Experimental: as §1

[31] = biological target: POLR2B, P30876
Experimental: as §1

[32] = biological target: PRRC2A, P48634
Experimental: as §1

[33] = biological target: RAB3GAP1, Q15042
Experimental: as §1

[34] = biological target: TAB2, Q9NYJ8
Experimental: as §1

[35] = biological target: UBAP2L, Q14157
Experimental: as §1

EECKQSAKNKPVGCT [PEX2]
PRISMA enrichment of interactor (log2) [1]: 4.87
PRISMA enrichment of interactor (log2) [2]: 6.06
PRISMA enrichment of interactor (log2) [3]: 7.14
PRISMA enrichment of interactor (log2) [4]: 4.82
PRISMA enrichment of interactor (log2) [5]: 4.15
PRISMA enrichment of interactor (log2) [6]: 6.27
PRISMA enrichment of interactor (log2) [7]: 5.37
PRISMA enrichment of interactor (log2) [8]: 6.65
PRISMA enrichment of interactor (log2) [9]: 4.55
PRISMA enrichment of interactor (log2) [10]: 6.68
PRISMA enrichment of interactor (log2) [11]: 5.91
PRISMA enrichment of interactor (log2) [12]: 4.21
PRISMA enrichment of interactor (log2) [13]: 4.18
PRISMA enrichment of interactor (log2) [14]: 7.04

IVNAKRFRSRIKTEA [CTC-471J1.11]
PRISMA enrichment of interactor (log2) [15]: 5.2
PRISMA enrichment of interactor (log2) [16]: 4.68
PRISMA enrichment of interactor (log2) [17]: 4.97
PRISMA enrichment of interactor (log2) [18]: 6.29
PRISMA enrichment of interactor (log2) [19]: 5.99
PRISMA enrichment of interactor (log2) [20]: 4.53
PRISMA enrichment of interactor (log2) [21]: 6.39
PRISMA enrichment of interactor (log2) [22]: 5.81

PFRQSSSLSRTFSSR [IDI2-AS1]
PRISMA enrichment of interactor (log2) [15]: 5.69
PRISMA enrichment of interactor (log2) [23]: 4.88
PRISMA enrichment of interactor (log2) [24]: 5.41
PRISMA enrichment of interactor (log2) [25]: 4.18
PRISMA enrichment of interactor (log2) [26]: 6.05
PRISMA enrichment of interactor (log2) [27]: 5.07
PRISMA enrichment of interactor (log2) [28]: 5.31
PRISMA enrichment of interactor (log2) [29]: 8.5
PRISMA enrichment of interactor (log2) [30]: 4.65
PRISMA enrichment of interactor (log2) [31]: 5.55
PRISMA enrichment of interactor (log2) [32]: 4.44
PRISMA enrichment of interactor (log2) [33]: 6.7
PRISMA enrichment of interactor (log2) [34]: 5.24
PRISMA enrichment of interactor (log2) [35]: 7.94
